Experimental data taken from the supplement of paper PMC10849652.
The other results are listed elsewhere or left out.

Sequences of proteins named here, by UniProt entry; tags and fusion partners are left off. A change or cut given only in a name is not applied to a line headed by its entry.
UniProt Q6P4A8: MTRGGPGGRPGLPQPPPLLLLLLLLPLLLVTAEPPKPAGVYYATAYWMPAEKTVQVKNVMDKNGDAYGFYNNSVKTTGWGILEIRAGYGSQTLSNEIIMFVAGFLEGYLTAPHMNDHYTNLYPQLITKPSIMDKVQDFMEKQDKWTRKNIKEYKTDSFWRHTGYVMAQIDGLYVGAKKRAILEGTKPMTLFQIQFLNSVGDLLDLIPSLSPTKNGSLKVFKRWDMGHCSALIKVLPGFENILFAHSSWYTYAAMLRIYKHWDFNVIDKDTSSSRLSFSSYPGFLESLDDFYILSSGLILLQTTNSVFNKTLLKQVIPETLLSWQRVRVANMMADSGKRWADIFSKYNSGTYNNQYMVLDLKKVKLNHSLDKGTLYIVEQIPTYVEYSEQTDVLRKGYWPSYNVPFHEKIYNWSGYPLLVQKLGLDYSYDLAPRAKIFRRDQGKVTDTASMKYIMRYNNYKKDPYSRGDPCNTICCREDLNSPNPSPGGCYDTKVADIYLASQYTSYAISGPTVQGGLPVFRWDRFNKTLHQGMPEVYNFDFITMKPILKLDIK
UniProt Q01813: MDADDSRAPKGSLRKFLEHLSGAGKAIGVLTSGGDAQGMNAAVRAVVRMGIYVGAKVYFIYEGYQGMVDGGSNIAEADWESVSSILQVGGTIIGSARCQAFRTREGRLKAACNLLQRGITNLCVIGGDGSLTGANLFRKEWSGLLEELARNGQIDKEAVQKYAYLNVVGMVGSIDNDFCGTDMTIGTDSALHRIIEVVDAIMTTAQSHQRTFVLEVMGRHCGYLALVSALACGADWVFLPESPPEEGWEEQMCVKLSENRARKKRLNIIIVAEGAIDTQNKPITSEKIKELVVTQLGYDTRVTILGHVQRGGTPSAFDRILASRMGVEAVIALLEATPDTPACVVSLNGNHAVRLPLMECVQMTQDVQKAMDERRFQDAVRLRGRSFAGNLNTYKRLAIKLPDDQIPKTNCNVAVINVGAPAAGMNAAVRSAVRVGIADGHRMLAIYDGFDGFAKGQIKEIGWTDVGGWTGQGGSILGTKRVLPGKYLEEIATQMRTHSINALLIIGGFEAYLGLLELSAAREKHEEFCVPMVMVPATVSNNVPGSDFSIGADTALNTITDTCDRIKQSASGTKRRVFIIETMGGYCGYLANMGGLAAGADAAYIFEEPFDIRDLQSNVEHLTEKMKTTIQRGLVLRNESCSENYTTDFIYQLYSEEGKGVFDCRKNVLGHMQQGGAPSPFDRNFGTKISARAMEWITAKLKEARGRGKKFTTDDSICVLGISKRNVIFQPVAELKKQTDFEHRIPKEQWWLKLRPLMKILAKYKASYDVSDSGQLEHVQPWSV
UniProt Q4KWH8: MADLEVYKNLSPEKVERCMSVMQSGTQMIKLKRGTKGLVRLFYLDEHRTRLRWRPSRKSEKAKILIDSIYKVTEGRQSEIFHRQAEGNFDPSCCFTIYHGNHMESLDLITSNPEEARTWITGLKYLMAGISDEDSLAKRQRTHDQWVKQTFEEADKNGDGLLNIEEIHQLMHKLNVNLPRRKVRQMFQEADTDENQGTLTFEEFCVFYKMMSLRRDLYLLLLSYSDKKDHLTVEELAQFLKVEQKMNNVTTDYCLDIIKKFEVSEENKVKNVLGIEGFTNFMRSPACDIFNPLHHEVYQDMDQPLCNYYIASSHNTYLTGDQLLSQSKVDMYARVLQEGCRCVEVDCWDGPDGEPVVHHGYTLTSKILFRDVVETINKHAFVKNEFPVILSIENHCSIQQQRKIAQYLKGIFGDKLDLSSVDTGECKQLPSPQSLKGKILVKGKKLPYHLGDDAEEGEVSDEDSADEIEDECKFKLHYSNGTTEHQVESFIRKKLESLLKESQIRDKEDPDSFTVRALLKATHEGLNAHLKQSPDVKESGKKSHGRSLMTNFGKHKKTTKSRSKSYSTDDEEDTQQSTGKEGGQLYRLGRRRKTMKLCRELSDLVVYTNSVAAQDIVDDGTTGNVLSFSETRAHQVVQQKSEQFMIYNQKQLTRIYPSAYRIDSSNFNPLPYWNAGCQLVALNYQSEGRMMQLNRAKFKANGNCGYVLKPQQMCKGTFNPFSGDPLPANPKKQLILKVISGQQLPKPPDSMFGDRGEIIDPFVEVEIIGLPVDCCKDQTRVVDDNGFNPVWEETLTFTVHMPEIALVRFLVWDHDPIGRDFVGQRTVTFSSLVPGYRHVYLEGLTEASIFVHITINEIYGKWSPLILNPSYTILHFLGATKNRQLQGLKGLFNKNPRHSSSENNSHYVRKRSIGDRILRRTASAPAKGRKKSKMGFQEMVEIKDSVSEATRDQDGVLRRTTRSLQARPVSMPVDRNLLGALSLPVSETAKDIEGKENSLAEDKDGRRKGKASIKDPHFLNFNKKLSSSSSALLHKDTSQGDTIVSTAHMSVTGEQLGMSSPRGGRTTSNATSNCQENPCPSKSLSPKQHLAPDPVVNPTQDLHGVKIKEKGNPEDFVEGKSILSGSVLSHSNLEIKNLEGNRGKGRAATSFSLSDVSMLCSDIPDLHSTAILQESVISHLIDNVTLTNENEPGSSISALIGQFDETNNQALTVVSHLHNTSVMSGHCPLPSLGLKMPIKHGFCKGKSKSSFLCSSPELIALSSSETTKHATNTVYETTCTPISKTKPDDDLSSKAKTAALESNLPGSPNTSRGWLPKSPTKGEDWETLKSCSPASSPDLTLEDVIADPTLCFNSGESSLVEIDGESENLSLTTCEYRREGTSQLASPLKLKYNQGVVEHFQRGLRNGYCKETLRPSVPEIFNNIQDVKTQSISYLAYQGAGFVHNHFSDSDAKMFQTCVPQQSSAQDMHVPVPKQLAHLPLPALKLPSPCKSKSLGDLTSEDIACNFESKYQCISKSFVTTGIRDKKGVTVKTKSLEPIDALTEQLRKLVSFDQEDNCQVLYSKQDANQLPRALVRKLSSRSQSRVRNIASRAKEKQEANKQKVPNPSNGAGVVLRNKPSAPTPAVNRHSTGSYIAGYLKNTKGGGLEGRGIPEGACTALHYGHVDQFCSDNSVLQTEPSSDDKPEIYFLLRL
UniProt P37287: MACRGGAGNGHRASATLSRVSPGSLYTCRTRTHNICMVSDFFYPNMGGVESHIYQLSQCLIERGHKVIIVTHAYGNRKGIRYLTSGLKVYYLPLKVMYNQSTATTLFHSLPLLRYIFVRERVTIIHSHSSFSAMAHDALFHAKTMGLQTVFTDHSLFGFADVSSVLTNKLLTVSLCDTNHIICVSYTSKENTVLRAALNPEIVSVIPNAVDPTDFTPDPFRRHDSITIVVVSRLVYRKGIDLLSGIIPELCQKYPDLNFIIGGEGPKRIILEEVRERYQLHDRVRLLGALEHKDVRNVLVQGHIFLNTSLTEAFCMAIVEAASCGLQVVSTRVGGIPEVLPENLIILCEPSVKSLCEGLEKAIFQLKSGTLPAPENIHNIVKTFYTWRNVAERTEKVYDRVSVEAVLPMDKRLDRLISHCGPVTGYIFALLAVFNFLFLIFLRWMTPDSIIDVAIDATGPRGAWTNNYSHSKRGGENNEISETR
UniProt Q96BK5: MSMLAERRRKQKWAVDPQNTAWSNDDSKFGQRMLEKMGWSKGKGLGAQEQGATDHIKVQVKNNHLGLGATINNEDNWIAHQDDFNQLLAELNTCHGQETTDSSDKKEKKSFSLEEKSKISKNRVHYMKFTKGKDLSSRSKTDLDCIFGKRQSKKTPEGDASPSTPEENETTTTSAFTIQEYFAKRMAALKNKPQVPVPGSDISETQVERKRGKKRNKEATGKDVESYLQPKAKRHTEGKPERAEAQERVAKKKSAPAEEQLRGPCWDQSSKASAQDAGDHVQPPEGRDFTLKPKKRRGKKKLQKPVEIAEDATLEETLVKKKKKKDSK
UniProt Q32M88: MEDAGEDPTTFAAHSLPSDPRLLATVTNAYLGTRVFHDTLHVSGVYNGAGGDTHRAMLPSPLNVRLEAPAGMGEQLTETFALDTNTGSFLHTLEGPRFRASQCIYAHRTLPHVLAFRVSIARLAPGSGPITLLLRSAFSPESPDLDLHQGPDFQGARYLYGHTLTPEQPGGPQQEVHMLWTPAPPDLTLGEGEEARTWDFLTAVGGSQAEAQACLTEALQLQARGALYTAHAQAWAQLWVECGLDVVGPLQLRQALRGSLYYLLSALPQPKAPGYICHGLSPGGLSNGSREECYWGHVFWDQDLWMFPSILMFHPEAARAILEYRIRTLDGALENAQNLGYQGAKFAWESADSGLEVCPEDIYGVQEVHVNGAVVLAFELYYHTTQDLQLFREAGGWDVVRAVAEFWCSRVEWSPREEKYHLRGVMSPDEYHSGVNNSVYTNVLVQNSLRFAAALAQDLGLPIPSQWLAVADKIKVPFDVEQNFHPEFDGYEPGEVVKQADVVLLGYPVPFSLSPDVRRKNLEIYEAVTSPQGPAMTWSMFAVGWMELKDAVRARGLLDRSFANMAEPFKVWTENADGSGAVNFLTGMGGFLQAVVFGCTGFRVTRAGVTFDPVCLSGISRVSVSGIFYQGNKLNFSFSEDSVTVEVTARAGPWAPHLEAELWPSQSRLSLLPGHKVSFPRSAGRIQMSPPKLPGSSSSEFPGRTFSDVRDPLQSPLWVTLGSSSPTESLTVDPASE
UniProt O95336: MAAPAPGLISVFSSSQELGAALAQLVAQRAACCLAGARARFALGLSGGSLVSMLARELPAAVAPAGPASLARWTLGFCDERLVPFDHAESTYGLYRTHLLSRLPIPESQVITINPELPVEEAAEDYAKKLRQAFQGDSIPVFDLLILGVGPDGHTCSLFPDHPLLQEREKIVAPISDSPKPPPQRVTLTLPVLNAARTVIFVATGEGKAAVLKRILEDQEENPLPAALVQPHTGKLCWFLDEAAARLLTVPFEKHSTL
UniProt P48739: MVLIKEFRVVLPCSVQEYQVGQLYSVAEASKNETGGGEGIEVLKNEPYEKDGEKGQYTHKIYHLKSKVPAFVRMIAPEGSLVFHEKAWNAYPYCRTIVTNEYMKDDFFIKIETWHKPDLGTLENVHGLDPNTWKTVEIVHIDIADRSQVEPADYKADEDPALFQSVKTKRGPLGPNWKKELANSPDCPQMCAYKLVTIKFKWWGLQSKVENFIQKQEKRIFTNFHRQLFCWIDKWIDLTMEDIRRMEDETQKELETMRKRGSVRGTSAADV
UniProt Q96HS1, whole entry, looked up: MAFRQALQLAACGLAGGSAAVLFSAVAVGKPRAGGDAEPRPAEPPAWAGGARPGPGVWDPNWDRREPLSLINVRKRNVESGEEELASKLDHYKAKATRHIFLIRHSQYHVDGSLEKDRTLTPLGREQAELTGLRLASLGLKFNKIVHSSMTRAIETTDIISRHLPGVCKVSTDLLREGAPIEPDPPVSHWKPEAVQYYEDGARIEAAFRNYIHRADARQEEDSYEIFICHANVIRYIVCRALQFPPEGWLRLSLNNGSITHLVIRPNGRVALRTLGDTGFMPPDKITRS
UniProt Q9BZM1: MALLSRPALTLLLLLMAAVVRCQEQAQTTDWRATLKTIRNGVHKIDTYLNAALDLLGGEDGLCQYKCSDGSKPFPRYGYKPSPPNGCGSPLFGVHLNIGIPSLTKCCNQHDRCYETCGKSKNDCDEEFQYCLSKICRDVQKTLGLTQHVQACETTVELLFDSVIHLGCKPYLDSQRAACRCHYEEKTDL
UniProt Q9H490: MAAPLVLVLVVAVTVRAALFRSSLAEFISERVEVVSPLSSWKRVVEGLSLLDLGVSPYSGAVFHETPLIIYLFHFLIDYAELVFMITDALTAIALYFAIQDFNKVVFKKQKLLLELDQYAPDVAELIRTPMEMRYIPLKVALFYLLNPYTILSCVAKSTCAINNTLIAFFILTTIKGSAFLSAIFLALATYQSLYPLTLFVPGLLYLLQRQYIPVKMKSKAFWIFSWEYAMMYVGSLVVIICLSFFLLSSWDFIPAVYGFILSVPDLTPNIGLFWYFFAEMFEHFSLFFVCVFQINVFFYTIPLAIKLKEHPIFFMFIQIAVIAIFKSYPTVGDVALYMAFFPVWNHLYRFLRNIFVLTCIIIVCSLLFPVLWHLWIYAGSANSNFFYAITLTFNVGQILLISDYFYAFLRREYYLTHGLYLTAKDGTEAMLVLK
UniProt Q9H814, whole entry, looked up: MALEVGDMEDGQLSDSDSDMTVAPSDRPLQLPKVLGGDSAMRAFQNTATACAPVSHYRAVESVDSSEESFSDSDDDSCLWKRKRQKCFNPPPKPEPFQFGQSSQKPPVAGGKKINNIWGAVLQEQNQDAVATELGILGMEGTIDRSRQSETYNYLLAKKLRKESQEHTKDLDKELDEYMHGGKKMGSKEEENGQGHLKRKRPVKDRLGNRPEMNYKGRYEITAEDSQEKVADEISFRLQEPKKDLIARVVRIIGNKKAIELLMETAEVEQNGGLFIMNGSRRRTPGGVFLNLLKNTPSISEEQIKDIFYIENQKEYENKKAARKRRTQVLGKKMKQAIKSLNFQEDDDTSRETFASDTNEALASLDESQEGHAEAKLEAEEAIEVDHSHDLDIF

Key:
Assay in all cases: log2 fold change, soluble protein after heating vs DMSO (PISA); higher = thermal stabilisation; K562 cells, 10 uM, 30 min; active = over 0.2 and 3.5 SD of the protein, either way, in both replicates (recomputed)
bafetinib = compound: Cc1ccc(NC(=O)c2ccc(CN3CC[C@H](N(C)C)C3)c(C(F)(F)F)c2)cc1Nc1nccc(-c2cncnc2)n1 [bafetinib]
Method in brief: (§1)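 Thermal stability values are relative to control samples and come from duplicates. They are expressed as log2 fold changes. For measurement, K562 cells (2×10^6 cells/mL) received 10 μM compound for 30 min, and aliquots were heated for 3 min over 48°C-58°C, pooled, and extracted at 4°C in PBS with 0.5% NP-40. Soluble protein, the supernatant after 21,000xg for 90 min, was quantified by TMTpro 16plex LC-MS/MS with equalised channel sums.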

[1] = compound: Cc1cccc(CC(=O)N2CCc3c2ccc(-c2cn(C)c4ncnc(N)c24)c3F)n1
Method in brief: as §1

nilotinib = compound: Cc1cn(-c2cc(NC(=O)c3ccc(C)c(Nc4nccc(-c5cccnc5)n4)c3)cc(C(F)(F)F)c2)cn1 [nilotinib]
Method in brief: as §1

[2] = compound: Cc1nc(Nc2n[nH]c3c2CN(C(=O)N[C@H](CN(C)C)c2ccccc2)C3(C)C)c2sccc2n1
Method in brief: as §1

dasatinib = compound: Cc1nc(Nc2ncc(C(=O)Nc3c(C)cccc3Cl)s2)cc(N2CCN(CCO)CC2)n1 [dasatinib]
Method in brief: as §1

[3] = compound: Cc1ncc(-c2ccnc(Nc3ccc(S(C)(=O)=O)cc3)n2)n1C(C)C
Method in brief: as §1

[4] = compound: Cn1cc(-c2ccc3c(c2)CCN3C(=O)Cc2cccc(C(F)(F)F)c2)c2c(N)ncnc21
Method in brief: as §1

[5] = compound: Cn1cc(-c2ccc3nnc(C(F)(F)c4ccc5ncccc5c4)n3n2)cn1
Method in brief: as §1

tipifarnib = compound: Cn1cncc1[C@@](N)(c1ccc(Cl)cc1)c1ccc2c(c1)c(-c1cccc(Cl)c1)cc(=O)n2C [tipifarnib]
Method in brief: as §1

mubritinib = compound: FC(F)(F)c1ccc(/C=C/c2nc(COc3ccc(CCCCn4ccnn4)cc3)co2)cc1 [mubritinib]
Method in brief: as §1

Measured: log2 fold change

PLA2G4B isoform 6 (UniProt P0C869)
inactive: bafetinib -0.064 | [1] -0.092 | nilotinib -0.084 | [2] 0.135 | dasatinib -0.048 | [3] 0.019 | [4] 0.193 | [5] -0.157 | tipifarnib -0.019 | mubritinib 0.021

PGAM4 (UniProt Q8N0Y7)
inactive: bafetinib -0.044 | [1] -0.05 | nilotinib 0.02 | [2] -0.003 | dasatinib 0.058 | [3] -0.033 | [4] 0.042 | [5] 0.008 | tipifarnib 0.028 | mubritinib 0.037

PLCD1 isoform 2 (UniProt P51178)
inactive: bafetinib -0.02 | [1] 0.038 | nilotinib -0.039 | [2] -0.063 | dasatinib -0.091 | [3] -0.017 | [4] 0.087 | [5] 0.009 | tipifarnib -0.052 | mubritinib 0.135

PGP (UniProt A6NDG6)
inactive: bafetinib 0.017 | [1] -0.017 | nilotinib 0.023 | [2] 0.004 | dasatinib 0.005 | [3] -0.006 | [4] 0.037 | [5] 0.01 | tipifarnib -0.06 | mubritinib 0.022

PI4K2A (UniProt Q9BTU6)
inactive: bafetinib -0.127 | [1] -0.042 | nilotinib 0.004 | [2] 0.037 | dasatinib -0.011 | [3] 0.076 | [4] 0.002 | [5] 0.056 | tipifarnib 0.031 | mubritinib -0.006

PLAA (UniProt Q9Y263)
inactive: bafetinib 0.034 | [1] 0.01 | nilotinib -0.012 | [2] -0.015 | dasatinib -0.078 | [3] -0.01 | [4] 0.014 | [5] -0.017 | tipifarnib -0.056 | mubritinib 0.107

PLBD1 (UniProt Q6P4A8)
inactive: bafetinib -0.143 | [1] 0 | nilotinib 0.021 | [2] -0.029 | dasatinib -0.063 | [3] -0.035 | [4] 0.041 | [5] 0.081 | tipifarnib 0.038 | mubritinib 0.052

PEX2 (UniProt P28328)
inactive: bafetinib -0.183 | [1] 0.034 | nilotinib -0.083 | [2] 0.028 | dasatinib 0.041 | [3] 0.042 | [4] 0.041 | [5] 0.008 | tipifarnib -0.06 | mubritinib -0.02

PFKP (UniProt Q01813)
inactive: bafetinib -0.021 | [1] -0.01 | nilotinib -0.02 | [2] 0.016 | dasatinib -0.04 | [3] -0.012 | [4] 0.068 | [5] 0.01 | tipifarnib 0.012 | mubritinib 0.008

PITPNA (UniProt Q00169)
inactive: bafetinib 0.001 | [1] -0.051 | nilotinib -0.002 | [2] 0.026 | dasatinib 0.034 | [3] 0.004 | [4] 0.02 | [5] 0.033 | tipifarnib -0.003 | mubritinib 0.007

PLCH1 (UniProt Q4KWH8)
inactive: bafetinib 0.059 | [1] -0.042 | nilotinib -0.128 | [2] -0.029 | dasatinib 0.01 | [3] 0.005 | [4] -0.03 | [5] 0.055 | tipifarnib 0.03 | mubritinib -0.008

Two neighbouring records already listed, for reference:
PFKP (UniProt Q01813)
inactive: bafetinib -0.021 | [1] -0.01 | nilotinib -0.02 | [2] 0.016 | dasatinib -0.04 | [3] -0.012 | [4] 0.068 | [5] 0.01 | tipifarnib 0.012 | mubritinib 0.008

PITPNA (UniProt Q00169)
inactive: bafetinib 0.001 | [1] -0.051 | nilotinib -0.002 | [2] 0.026 | dasatinib 0.034 | [3] 0.004 | [4] 0.02 | [5] 0.033 | tipifarnib -0.003 | mubritinib 0.007

Later entries:

PIGA (UniProt P37287)
inactive: bafetinib -0.015 | [1] 0.074 | nilotinib 0.033 | [2] 0.018 | dasatinib 0.145 | [3] -0.026 | [4] 0.015 | [5] -0.034 | tipifarnib -0.042 | mubritinib 0.04

PHKB isoform 3 (UniProt Q93100)
inactive: bafetinib 0.045 | [1] -0.004 | nilotinib -0.19 | [2] 0.037 | dasatinib -0.221 | [3] 0.001 | [4] -0.052 | [5] -0.023 | tipifarnib -0.027 | mubritinib 0.001

PINX1 (UniProt Q96BK5)
inactive: bafetinib 0.086 | [1] 0.017 | nilotinib -0.132 | [2] 0.04 | dasatinib 0.221 | [3] -0.242 | [4] -0.318 | [5] -0.069 | tipifarnib 0.413 | mubritinib -0.129

PLCG2 (UniProt P16885)
inactive: bafetinib -0.054

PEX6 (UniProt Q13608)
inactive: bafetinib -0.034 | [1] 0.002 | nilotinib -0.063 | [2] -0.004 | dasatinib -0.023 | [3] 0.016 | [4] -0.055 | [5] 0.033 | tipifarnib 0.037 | mubritinib 0.089

PGGHG (UniProt Q32M88)
inactive: bafetinib -0.036 | [1] -0.001 | nilotinib 0.012 | [2] 0.023 | dasatinib 0.009 | [3] -0.078 | [4] -0.152 | [5] 0.058 | tipifarnib -0.077 | mubritinib 0.047

PGLS (UniProt O95336)
inactive: bafetinib 0.068 | [1] 0.02 | nilotinib 0.069 | [2] -0.004 | dasatinib -0.014 | [3] -0.03 | [4] 0.045 | [5] 0.309 | tipifarnib 0.055 | mubritinib 0.051

PI4KA (UniProt P42356)
inactive: bafetinib 0.105 | [1] -0.007 | nilotinib 0.002 | [2] -0.127 | dasatinib -0.08 | [3] 0.021 | [4] -0.118 | [5] -0.022 | tipifarnib -0.039 | mubritinib -0.086

PITPNB isoform 3 (UniProt P48739)
inactive: bafetinib 0.026 | [1] -0.005 | nilotinib 0.009 | [2] 0.057 | dasatinib 0.037 | [3] 0.003 | [4] 0.044 | [5] 0.036 | tipifarnib 0.036 | mubritinib 0.011

PIKFYVE (UniProt Q9Y2I7)
inactive: bafetinib -0.031 | [1] 0.153 | nilotinib -0.015 | [2] 0.045 | dasatinib -0.061 | [3] -0.092 | [4] 0.005 | [5] 0.031 | tipifarnib 0.108 | mubritinib 0.017

PHGDH (UniProt O43175)
inactive: bafetinib -0.011 | [1] -0.017 | nilotinib 0.026 | [2] 0.001 | dasatinib 0.036 | [3] 0 | [4] 0.025 | [5] 0.024 | tipifarnib -0.033 | mubritinib 0.03

PGAM5 (UniProt Q96HS1)
inactive: bafetinib 0.016 | [1] -0.034 | nilotinib -0.038 | [2] 0.114 | dasatinib 0.068 | [3] 0.043 | [4] -0.055 | [5] -0.126 | tipifarnib 0.03 | mubritinib -0.048

PLA2G12A (UniProt Q9BZM1)
inactive: bafetinib -0.108 | [1] -0.076 | nilotinib -0.2 | [2] 0.015 | dasatinib -0.135 | [3] -0.149 | [4] -0.119 | [5] -0.129 | tipifarnib 0.001 | mubritinib 0.152

PIGU (UniProt Q9H490)
inactive: bafetinib -0.058 | [1] 0.052 | nilotinib -0.058 | [2] -0.01 | dasatinib -0.053 | [3] -0.054 | [4] -0.002 | [5] 0.016 | tipifarnib 0.057 | mubritinib 0.066

PIK3R4 (UniProt Q99570)
inactive: bafetinib 0.055 | [1] -0.065 | nilotinib -0.021 | [2] -0.043 | dasatinib -0.037 | [3] 0.186 | [4] 0.021 | [5] 0.041 | tipifarnib 0.012 | mubritinib 0.036

PIGN (UniProt O95427)
inactive: bafetinib -0.013 | [1] -0.012 | nilotinib 0.048 | [2] -0.248 | dasatinib 0.228 | [3] 0.031 | [4] -0.103 | [5] -0.014 | tipifarnib 0.206 | mubritinib 0.04

PHAX (UniProt Q9H814)
inactive: bafetinib -0.056 | [1] -0.117 | nilotinib 0.028 | [2] -0.176 | dasatinib 0.03 | [3] -0.096 | [4] -0.033 | [5] 0.006 | tipifarnib 0.011 | mubritinib 0.013
